# Measured values reported in the supplement of paper PMC8728848.
# This is one part of the list.
# Key:
# Test in all cases: glycan array binding signal (z-score within array); higher = stronger binding
# Conditions in all cases: glycan notation: IUPAC condensed, linker removed
# [1] = molecular target: Neu5Ac(a2-6)Gal(b1-4)GlcNAc(b1-2)Man(a1-3)[Man(a1-6)]Man(b1-4)GlcNAc(b1-4)GlcNAc
# How it was run: (§1)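 Negative Z-scores can be read as non-binding. The Z-score is calculated within each array and then averaged across arrays of one protein sequence at different concentrations or buffers and across linkers. Arrays, 3228 in all, were curated from the Consortium for Functional Glycomics database and kept only where the protein sequence was available.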
# [2] = molecular target: Neu5Ac(a2-6)Gal(b1-4)GlcNAc(b1-2)Man(a1-3)[Neu5Ac(a2-3)Gal(b1-4)GlcNAc(b1-2)Man(a1-6)]Man(b1-4)GlcNAc(b1-4)GlcNAc
# How it was run: as §1
# [3] = molecular target: Neu5Ac(a2-6)Gal(b1-4)GlcNAc(b1-2)Man(a1-3)[Neu5Ac(a2-6)Gal(b1-4)GlcNAc(b1-2)Man(a1-6)]Man(b1-4)GlcNAc(b1-4)GlcNAc
# How it was run: as §1
# [4] = molecular target: Neu5Ac(a2-6)Gal(b1-4)GlcNAc(b1-2)Man(a1-3)[Neu5Ac(a2-6)Gal(b1-4)GlcNAc(b1-2)Man(a1-6)]Man(b1-4)GlcNAc(b1-4)[Fuc(a1-6)]GlcNAc
# How it was run: as §1
# [5] = molecular target: Neu5Ac(a2-6)Gal(b1-4)GlcNAc(b1-2)Man(a1-6)Man(b1-4)GlcNAc(b1-4)GlcNAc
# How it was run: as §1
# [6] = molecular target: Neu5Ac(a2-6)Gal(b1-4)GlcNAc(b1-2)Man(a1-6)[Gal(b1-4)GlcNAc(b1-2)Man(a1-3)]Man(b1-4)GlcNAc(b1-4)GlcNAc
# How it was run: as §1
# [7] = molecular target: Neu5Ac(a2-6)Gal(b1-4)GlcNAc(b1-2)Man(a1-6)[GlcNAc(b1-2)Man(a1-3)]Man(b1-4)GlcNAc(b1-4)GlcNAc
# How it was run: as §1
# [8] = molecular target: Neu5Ac(a2-6)Gal(b1-4)GlcNAc(b1-2)Man(a1-6)[Man(a1-3)]Man(b1-4)GlcNAc(b1-4)GlcNAc
# How it was run: as §1
# [9] = molecular target: Neu5Ac(a2-6)Gal(b1-4)GlcNAc(b1-2)[Neu5Ac(a2-6)Gal(b1-4)GlcNAc(b1-4)]Man(a1-3)[GlcNAc(b1-4)][Neu5Ac(a2-6)Gal(b1-4)GlcNAc(b1-2)[Neu5Ac(a2-6)Gal(b1-4)GlcNAc(b1-6)]Man(a1-6)]Man(b1-4)GlcNAc(b1-4)GlcNAc
# How it was run: as §1
# [10] = molecular target: Neu5Ac(a2-6)Gal(b1-4)GlcNAc(b1-2)[Neu5Ac(a2-6)Gal(b1-4)GlcNAc(b1-4)]Man(a1-3)[GlcNAc(b1-4)][Neu5Ac(a2-6)Gal(b1-4)GlcNAc(b1-4)Man(a1-6)]Man(b1-4)GlcNAc(b1-4)GlcNAc
# How it was run: as §1
# [11] = molecular target: Neu5Ac(a2-6)Gal(b1-4)GlcNAc(b1-2)[Neu5Ac(a2-6)Gal(b1-4)GlcNAc(b1-6)]Man(a1-6)[Neu5Ac(a2-6)Gal(b1-4)GlcNAc(b1-2)Man(a1-3)][GlcNAc(b1-4)]Man(b1-4)GlcNAc(b1-4)GlcNAc
# How it was run: as §1
# [12] = molecular target: Neu5Ac(a2-6)Gal(b1-4)GlcNAc(b1-3)Gal(b1-3)GlcNAc
# How it was run: as §1
# [13] = molecular target: Neu5Ac(a2-6)Gal(b1-4)GlcNAc(b1-3)Gal(b1-4)GlcNAc
# How it was run: as §1
# [14] = molecular target: Neu5Ac(a2-6)Gal(b1-4)GlcNAc(b1-3)Gal(b1-4)GlcNAc(b1-2)Man(a1-3)[Neu5Ac(a2-6)Gal(b1-4)GlcNAc(b1-3)Gal(b1-4)GlcNAc(b1-2)Man(a1-6)]GalNAc
# How it was run: as §1
# [15] = molecular target: Neu5Ac(a2-6)Gal(b1-4)GlcNAc(b1-3)Gal(b1-4)GlcNAc(b1-3)Gal(b1-4)GlcNAc
# How it was run: as §1
# [16] = molecular target: Neu5Ac(a2-6)Gal(b1-4)GlcNAc(b1-3)Gal(b1-4)GlcNAc(b1-3)Gal(b1-4)GlcNAc(b1-2)Man(a1-3)[Neu5Ac(a2-6)Gal(b1-4)GlcNAc(b1-3)Gal(b1-4)GlcNAc(b1-3)Gal(b1-4)GlcNAc(b1-2)Man(a1-6)]GalNAc
# How it was run: as §1
# [17] = molecular target: Neu5Ac(a2-6)Gal(b1-4)GlcNAc(b1-3)Gal(b1-4)GlcNAc(b1-3)GalNAc
# How it was run: as §1
# [18] = molecular target: Neu5Ac(a2-6)Gal(b1-4)GlcNAc(b1-3)Gal(b1-4)GlcNAc(b1-3)[Neu5Ac(a2-6)Gal(b1-4)GlcNAc(b1-3)Gal(b1-4)GlcNAc(b1-6)]GalNAc
# How it was run: as §1
# [19] = molecular target: Neu5Ac(a2-6)Gal(b1-4)GlcNAc(b1-3)Gal(b1-4)GlcNAc(b1-6)[Gal(b1-3)]GalNAc
# How it was run: as §1
# [20] = molecular target: Neu5Ac(a2-6)Gal(b1-4)GlcNAc(b1-3)Gal(b1-4)[Fuc(a1-3)]GlcNAc(b1-3)Gal(b1-4)[Fuc(a1-3)]GlcNAc
# How it was run: as §1
# [21] = molecular target: Neu5Ac(a2-6)Gal(b1-4)GlcNAc(b1-3)GalNAc
# How it was run: as §1
# [22] = molecular target: Neu5Ac(a2-6)Gal(b1-4)GlcNAc(b1-3)[Neu5Ac(a2-6)Gal(b1-4)GlcNAc(b1-6)]GalNAc
# How it was run: as §1
# [23] = molecular target: Neu5Ac(a2-6)Gal(b1-4)GlcNAc(b1-6)GalNAc
# How it was run: as §1
# [24] = molecular target: Neu5Ac(a2-6)Gal(b1-4)GlcNAc(b1-6)[Gal(b1-3)GlcNAc(b1-3)]Gal(b1-4)Glc
# How it was run: as §1
# [25] = molecular target: Neu5Ac(a2-6)Gal(b1-4)GlcNAc(b1-6)[Gal(b1-3)]GalNAc
# How it was run: as §1
# [26] = molecular target: Neu5Ac(a2-6)Gal(b1-4)GlcNAc6S
# How it was run: as §1
# Neu5Ac(a2-6)GalNAc = molecular target: Neu5Ac(a2-6)GalNAc
# How it was run: as §1
# [27] = molecular target: Neu5Ac(a2-6)GalNAc(b1-4)GlcNAc
# How it was run: as §1
# [28] = molecular target: Neu5Ac(a2-6)GalNAc(b1-4)GlcNAc6S
# How it was run: as §1
# [29] = molecular target: Neu5Ac(a2-6)GlcNAc(b1-4)GlcNAc
# How it was run: as §1
# [30] = molecular target: Neu5Ac(a2-6)GlcNAc(b1-4)GlcNAc(b1-4)GlcNAc
# How it was run: as §1
binder,measurement,setting,value
"MXA PilAct-eGFP (Myxococcus xanthus), Q59589 (protein) MRVSRFNPRNRGFTLIELMIVVAIIGILAAIAIPNFIKFQARSKQSEAKTNLKALYTAQKSFFSEKDRYSDFANEIGFAPERGNRYGYRVSAAAGDCEVRNAADLPVPAAGVPCISNDSFRFGANSAIDDPTPVVARFVPQGAAGWNTTLGVQPTIADCPNCNFFAGARGNADNEATFDDWVIAGFEGSGQVGPCSEAGNVASGTPYNTRNDVACDGAAQ",glycan array binding signal (z-score),[1],3.09
same,glycan array binding signal (z-score),[2],-0.606
same,glycan array binding signal (z-score),[3],0.119
same,glycan array binding signal (z-score),[4],0.932
same,glycan array binding signal (z-score),[5],2.91
same,glycan array binding signal (z-score),[6],0.444
same,glycan array binding signal (z-score),[7],-0.384
same,glycan array binding signal (z-score),[8],1.24
same,glycan array binding signal (z-score),[9],-0.369
same,glycan array binding signal (z-score),[10],-0.544
same,glycan array binding signal (z-score),[11],0.894
same,glycan array binding signal (z-score),[12],1.4
same,glycan array binding signal (z-score),[13],-0.602
same,glycan array binding signal (z-score),[14],-0.98
same,glycan array binding signal (z-score),[15],-0.139
same,glycan array binding signal (z-score),[16],-0.044
same,glycan array binding signal (z-score),[17],-0.204
same,glycan array binding signal (z-score),[18],-0.119
same,glycan array binding signal (z-score),[19],-0.151
same,glycan array binding signal (z-score),[20],0.282
same,glycan array binding signal (z-score),[21],-0.438
same,glycan array binding signal (z-score),[22],0.158
same,glycan array binding signal (z-score),[23],-0.751
same,glycan array binding signal (z-score),[24],0.909
same,glycan array binding signal (z-score),[25],-0.019
same,glycan array binding signal (z-score),[26],-0.252
same,glycan array binding signal (z-score),Neu5Ac(a2-6)GalNAc,-0.682
same,glycan array binding signal (z-score),[27],-0.136
same,glycan array binding signal (z-score),[28],0.083
same,glycan array binding signal (z-score),[29],-0.184
same,glycan array binding signal (z-score),[30],-0.645
